# The other results are listed elsewhere or left out.
# Biological target: T1, OsSMF1 (Oryza sativa, UniProt Q6ZLB0 1-436)
# T1 sequence: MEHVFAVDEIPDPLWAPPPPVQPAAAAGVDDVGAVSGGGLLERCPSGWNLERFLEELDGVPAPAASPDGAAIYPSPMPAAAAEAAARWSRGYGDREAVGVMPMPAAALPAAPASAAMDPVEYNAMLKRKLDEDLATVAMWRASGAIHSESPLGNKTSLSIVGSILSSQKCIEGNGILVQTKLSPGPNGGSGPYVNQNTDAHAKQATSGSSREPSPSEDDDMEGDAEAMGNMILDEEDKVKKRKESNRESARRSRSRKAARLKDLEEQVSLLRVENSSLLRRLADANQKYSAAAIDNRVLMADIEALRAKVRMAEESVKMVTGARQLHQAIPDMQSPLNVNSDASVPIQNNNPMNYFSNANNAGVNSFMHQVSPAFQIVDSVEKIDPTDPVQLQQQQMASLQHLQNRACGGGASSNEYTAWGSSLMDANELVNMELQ
# Experiment: protein-binding microarray (RPBM); PBS, 2% BSA, 51.3 ng/ul salmon testes DNA, 50 uM zinc acetate, 200 nM TF, 25 C, 1 h; high values mean tight binding
# Conditions: protein: recombinant; tags: N-terminal polyhistidine and DsRed monomer fusion (pET32a); chain copies: 2; label: CyDye5-dUTP incorporated in the synthesized complementary strand; 3' TTTTT single-stranded linker to array surface; dsDNA, one strand shown
# How it was run: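 Ni–NTA purification followed expression in E. coli BL21-CodonPlus of transcription factors fused N-terminally to a polyhistidine tag and DsRed. At 200 nM in PBS with 2% BSA, salmon testes DNA and 50 µM zinc acetate, the protein was incubated for 1 h at 25 °C with a custom Agilent array that had been primer-extended with Cy5-dUTP and blocked with 2% BSA. After washing, the array was read on an Axon 4000B scanner. The binding signal is per-feature fluorescence intensity in arbitrary units.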
row,Sequence,binding signal
1,CTGATCGCTTCTGCGTCACTATTTCTTCTGAAACAATAGCCGGAGTCACCTAGTGCAG,3250 fluorescence intensity (a.u.)
2,TGCCGCCTCCTGATCCGCATCAGCCGGAGCTCGCCGGCCACGGAGTCACCTAGTGCAG,3520 fluorescence intensity (a.u.)
3,CACTTACACTTTCATCATCACTTTCTGTAAAAGGGAGTGACGGAGTCACCTAGTGCAG,23400 fluorescence intensity (a.u.)
4,CTCCCCGGCCCAAAATGCTCGTGGAGTCGTTGTGTTCATGCGGAGTCACCTAGTGCAG,3610 fluorescence intensity (a.u.)
5,ACACCGATGCGGTGTCGATGTGGCGGTACCCGACCTCCAGCGGAGTCACCTAGTGCAG,24300 fluorescence intensity (a.u.)
6,GGAAGTTCACACGTTGACGTCAAGGAGCATGTGTACTACTCGGAGTCACCTAGTGCAG,5530 fluorescence intensity (a.u.)
7,AAATGCAATTTGACAACTATAAGCCGGCAAGAAAATATTACGGAGTCACCTAGTGCAG,3750 fluorescence intensity (a.u.)
8,CACGCTGACTCATTAGACACGTAGGATAAAACCGGGATCGCGGAGTCACCTAGTGCAG,9820 fluorescence intensity (a.u.)
9,GTGTCTAGTACTAGTTTCTTAATGATGTGGAGTTTATGAACGGAGTCACCTAGTGCAG,5900 fluorescence intensity (a.u.)
10,CTTAGTACAAATTTGTGGAGTAGCTCTGCCAACTCCGCTCCGGAGTCACCTAGTGCAG,3240 fluorescence intensity (a.u.)
11,TCACAATCTATAACACGTGGATCCTCATGTGTCTATGATACGGAGTCACCTAGTGCAG,8100 fluorescence intensity (a.u.)
12,ATACTTTCGGATGTCGGCAATATCATACCAATTGCCAAGACGGAGTCACCTAGTGCAG,22400 fluorescence intensity (a.u.)
13,ATGCACATATCATACGTGTATATGTGTGTGTGAGTGTATTCGGAGTCACCTAGTGCAG,5760 fluorescence intensity (a.u.)
14,CTTATCTAATGTTTGCTGAGGTGTCGAAAGCTTTGCATTTCGGAGTCACCTAGTGCAG,6170 fluorescence intensity (a.u.)
15,AGCAGGGGAGGTGATGTCAGCGTTATAATTGATCTCCCGTCGGAGTCACCTAGTGCAG,10600 fluorescence intensity (a.u.)
16,CCTCCATCCTTGTGACTCTCTCCTCTCCATCTCCAAGACTCGGAGTCACCTAGTGCAG,4200 fluorescence intensity (a.u.)
17,AGCCTAGTTTCTTCCTTTGTCCACGTGTAATATTTGAAGTCGGAGTCACCTAGTGCAG,22100 fluorescence intensity (a.u.)
18,GGCTTGGTGCGTGGAGCATAGGGAAGACGACGTGGAGACTCGGAGTCACCTAGTGCAG,4900 fluorescence intensity (a.u.)
19,TGCCTATAAGAGTATGATATACGTGTGTGTTGTGAGCGCCCGGAGTCACCTAGTGCAG,4190 fluorescence intensity (a.u.)
20,TCAGAATTCAGCAACTGCATTTGTCAGTCAAACACTGAGGCGGAGTCACCTAGTGCAG,27400 fluorescence intensity (a.u.)
21,ACGAAACCGCACAAAAGCCGGTGAATTTTCCCGTAATTTGCGGAGTCACCTAGTGCAG,8780 fluorescence intensity (a.u.)
22,AAATTCTGACAAAATTGTAACCTTAAAACTGTCAGATTTTCGGAGTCACCTAGTGCAG,7020 fluorescence intensity (a.u.)
23,TAGCCGCCGCATTTTACTACTGCCCACCACCACCACACCACGGAGTCACCTAGTGCAG,3380 fluorescence intensity (a.u.)
24,GCCTGATTTACGTTGTTCGTATTGAACGGTACCGAATCAACGGAGTCACCTAGTGCAG,3550 fluorescence intensity (a.u.)
25,CACTGTTTGATGCTAAAACATATTACGTGTGCCGTTCATACGGAGTCACCTAGTGCAG,3580 fluorescence intensity (a.u.)
26,AATAGTTGGCCACTGTGCGTGCGTGGCTGCGTGTGCTTGCCGGAGTCACCTAGTGCAG,8850 fluorescence intensity (a.u.)
27,TGGGCTGTATGGGTCGCGCTGGATTTTAGTATCAGTGGATCGGAGTCACCTAGTGCAG,3630 fluorescence intensity (a.u.)

row,Sequence,binding signal
1,TAGCCATCGCCACCACCACCGCCACCGCCACCGCCACGCTCGGAGTCACCTAGTGCAG,3840 fluorescence intensity (a.u.)
2,TGCAGTGACGGGTTGCTGTCGTTCCAGCTGCAGCTGGCCCCGGAGTCACCTAGTGCAG,3160 fluorescence intensity (a.u.)
3,TGAGATATATATGATCACGTCACAGGGCGGCACTGGTTCTCGGAGTCACCTAGTGCAG,3430 fluorescence intensity (a.u.)
4,TCCATCCTGCCCACCACGCGGCATATGGTGGGCCTGGCGACGGAGTCACCTAGTGCAG,3430 fluorescence intensity (a.u.)
5,GGCTGACGCCGTCGTCGTCGTCGTCCGCCCGCACAATCTCCGGAGTCACCTAGTGCAG,3310 fluorescence intensity (a.u.)
6,CCACCCACGGAGCCAGCTCACTACCACCGTTTGTCGCCTCCGGAGTCACCTAGTGCAG,4360 fluorescence intensity (a.u.)
7,TTTCTCCCATAAAGCCACATCATCTTACTTTTATATTTGACGGAGTCACCTAGTGCAG,3960 fluorescence intensity (a.u.)
8,ACTCTACGATATTATATTTTAGATGATGTGTCATGCTTGCCGGAGTCACCTAGTGCAG,15900 fluorescence intensity (a.u.)
9,TCGGCGAAGTCCTCCTCGTTGTAGACGACGGTGAGGAAGACGGAGTCACCTAGTGCAG,11600 fluorescence intensity (a.u.)
10,TGCATCCAGTGTTGAACTTTGGGTAGCTATGTTTTCCCATCGGAGTCACCTAGTGCAG,3450 fluorescence intensity (a.u.)
11,GCCTGTTGAGTTTGGATCACTGCCAGCACTTCAGGATGCTCGGAGTCACCTAGTGCAG,5300 fluorescence intensity (a.u.)
12,CTTTAAACGTTGGCCTCTTGTTAGTCGATGCAATCATCTTCGGAGTCACCTAGTGCAG,3450 fluorescence intensity (a.u.)
13,CTGCCTAGGGTAGGCTCCGCAGTGGGCATCAGCGCCGCGTCGGAGTCACCTAGTGCAG,3830 fluorescence intensity (a.u.)
14,GGTCCCATGTCACCTACAGGTGAGGTCCAGGACCTTCGCACGGAGTCACCTAGTGCAG,3540 fluorescence intensity (a.u.)
15,ACAGATACAATGAGCGAGCGTTTGGTGTAATATGTGACAGCGGAGTCACCTAGTGCAG,43600 fluorescence intensity (a.u.)
16,CGAGCCAAAACCACGTAACAATCGCCCGCCCACGTCCCGTCGGAGTCACCTAGTGCAG,5140 fluorescence intensity (a.u.)
17,AGCTAGCTGAATCTCCGGAGTCCCGGACCGTTTCAGATAGCGGAGTCACCTAGTGCAG,12500 fluorescence intensity (a.u.)
18,CCTTCCCATGCCCTAAAATATAAAAGATTTTAGACGGATGCGGAGTCACCTAGTGCAG,4120 fluorescence intensity (a.u.)
19,GCGCAACTGGCAGATTCGTGGGGATTCGTGGGGATAATATCGGAGTCACCTAGTGCAG,4350 fluorescence intensity (a.u.)
20,TGTTGCCTTGTAGATATACACACATCACTCCATGCATCTACGGAGTCACCTAGTGCAG,3610 fluorescence intensity (a.u.)
21,CATGGCTGTTTGGTTATAGGGACTAAAAGGGACTTAAGTTCGGAGTCACCTAGTGCAG,3350 fluorescence intensity (a.u.)
22,GTGTGTCTGCGGACAGCACACAGCTGCGCATTTCGATGCGCGGAGTCACCTAGTGCAG,38100 fluorescence intensity (a.u.)
23,CCCTTCCGTGCCGCGTCGTGCCAGGGCCCGCGCCACGCCACGGAGTCACCTAGTGCAG,31100 fluorescence intensity (a.u.)
24,TCTGAGTGGACGATGATGGATGGCTAGTTCTGACTAGACGCGGAGTCACCTAGTGCAG,5440 fluorescence intensity (a.u.)
25,GGGAGAGGAGGAGAGGAGTTAGGTTAAATGGTCAGCACGACGGAGTCACCTAGTGCAG,3980 fluorescence intensity (a.u.)
26,GAGCAGAAAGACGCGGCTTCTCGAGAGTTCCAAGTTCCAACGGAGTCACCTAGTGCAG,45200 fluorescence intensity (a.u.)
27,GGGTTCTTCACCGATTACGCCAACCCCGCCACTACGCGGACGGAGTCACCTAGTGCAG,21900 fluorescence intensity (a.u.)

# No new results follow: entries from further up.
row,Sequence,binding signal
11,GCCTGTTGAGTTTGGATCACTGCCAGCACTTCAGGATGCTCGGAGTCACCTAGTGCAG,5300 fluorescence intensity (a.u.)
12,CTTTAAACGTTGGCCTCTTGTTAGTCGATGCAATCATCTTCGGAGTCACCTAGTGCAG,3450 fluorescence intensity (a.u.)
